Test results published in publication PMC4860773.

Target: T1, Warts (Wts), Myc-tagged (Drosophila) (UniProt Q9VA38)
T1 sequence: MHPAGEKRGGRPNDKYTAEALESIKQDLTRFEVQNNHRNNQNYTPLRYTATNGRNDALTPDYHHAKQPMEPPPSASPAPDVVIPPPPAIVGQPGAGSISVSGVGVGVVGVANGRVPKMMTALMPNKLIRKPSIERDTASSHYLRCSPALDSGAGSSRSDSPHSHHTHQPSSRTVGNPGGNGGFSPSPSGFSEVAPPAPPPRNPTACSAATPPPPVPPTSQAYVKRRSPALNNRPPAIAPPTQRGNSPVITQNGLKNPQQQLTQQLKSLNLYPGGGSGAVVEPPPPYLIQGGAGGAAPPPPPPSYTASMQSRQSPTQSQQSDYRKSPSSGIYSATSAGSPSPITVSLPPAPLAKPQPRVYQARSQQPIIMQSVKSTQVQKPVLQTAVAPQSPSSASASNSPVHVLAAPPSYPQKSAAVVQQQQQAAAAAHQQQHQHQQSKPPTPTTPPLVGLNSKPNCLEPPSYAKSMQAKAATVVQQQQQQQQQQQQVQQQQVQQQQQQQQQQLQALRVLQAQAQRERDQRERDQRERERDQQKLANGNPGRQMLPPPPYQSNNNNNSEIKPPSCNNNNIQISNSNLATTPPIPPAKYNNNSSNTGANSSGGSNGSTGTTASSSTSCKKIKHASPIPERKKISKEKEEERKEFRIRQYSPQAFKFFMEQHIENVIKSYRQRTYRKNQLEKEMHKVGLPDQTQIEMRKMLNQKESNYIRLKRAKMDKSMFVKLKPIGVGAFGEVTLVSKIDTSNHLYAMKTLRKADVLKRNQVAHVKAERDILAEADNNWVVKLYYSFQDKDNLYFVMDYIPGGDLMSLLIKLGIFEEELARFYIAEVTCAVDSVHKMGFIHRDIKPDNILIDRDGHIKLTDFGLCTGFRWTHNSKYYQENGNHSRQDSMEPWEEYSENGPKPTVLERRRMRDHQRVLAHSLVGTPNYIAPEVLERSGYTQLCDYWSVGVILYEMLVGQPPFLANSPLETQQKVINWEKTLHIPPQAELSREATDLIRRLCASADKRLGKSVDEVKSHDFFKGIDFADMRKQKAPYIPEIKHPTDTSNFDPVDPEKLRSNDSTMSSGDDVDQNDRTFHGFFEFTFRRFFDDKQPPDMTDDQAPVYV
Test: co-IP; HA-Hppy and Myc-Wts coexpressed in Drosophila S2 cells; immunoprecipitation and western blot as in ref. 33; which protein was precipitated is not told

## Happyhour (Hppy), HA-tagged (Drosophila) (enzyme)
  binding: binds

Results are given in words; binding and its absence hold for the method and conditions named. In cells and extracts the contact can be indirect. Binding calls can cover weak binding; strength is not graded here. Where a sequence is shown, tags or fusion partners need not be part of it.
